PubChem BioAssay AID686937, Drosophila RNAi Screening Center, 2013
Purpose: 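Genes in the fly needed for secretion of protein constitutively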 (primary screen). Cell system: Drosophila S2 cells expressing secreted horseradish peroxidase. Knock-down reagent: long dsRNA against Drosophila genes. Time to read-out: about 5.5 days (5 days dsRNA, then 12 h reporter induction). Treatment: reporter expression induced after 5 days of dsRNA, read 12 h later; inducer not stated. Read-out: 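Chemiluminescent measurement of peroxidase in the medium 12 h after reporter induction, following 5 days of dsRNA, given as a z-score per plate; higher means more secretion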. Scale: z-score: higher = more reporter secreted into medium.
In all, the deposit lists about 23,000 reagents; this is a random part of those with a known target gene and a result. 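Reduced-secretion tags in replicate 1 do not always agree with the z-scores; no criterion for assigning the tags was given.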 A plus sign joins genes that one reagent is predicted to hit. Not all columns of the deposit are shown. Not stated in the record: the amount of reagent.

CG33506 [DRSC05981] → z-score, replicate 1 = 0.17
Cpr23B (Cuticular protein 23B) [DRSC00555] → z-score, replicate 1 = -0.71
Vps35 (Vacuolar protein sorting 35) [DRSC04519] → z-score, replicate 1 = 0.34
RpL41 (Ribosomal protein L41) [DRSC22958] → z-score, replicate 1 = 0.1
myo (myoglianin) [DRSC17174] → z-score, replicate 1 = 0.41
vls (valois) [DRSC02101] → z-score, replicate 1 = 0.46
Grx3 (Glutaredoxin 3) [DRSC02966] → z-score, replicate 1 = 0.38
unc-45 (uncoordinated 45) [DRSC15449] → z-score, replicate 1 = 0.21
Rpe (Ribulose-5-phosphate-3-epimerase) [DRSC06407] → z-score, replicate 1 = 0.54
axo (axotactin) [DRSC08116] → z-score, replicate 1 = -1.34
axo (axotactin) [DRSC08324] → z-score, replicate 1 = 0.6
axo (axotactin) [DRSC08326] → z-score, replicate 1 = -2.79
axo (axotactin) [DRSC21337] → z-score, replicate 1 = 0.41
Kdm4B (Lysine demethylase 4B) [DRSC06862] → z-score, replicate 1 = 0.23
mi (minus) [DRSC04498] → z-score, replicate 1 = 0.12
CG33255 (retired record) + CR42842 + hpRNA:CR32205 + 1 more [DRSC09617] → z-score, replicate 1 = 0.4
CG10062 [DRSC05960] → z-score, replicate 1 = 0.11
CG10062 [DRSC22535] → z-score, replicate 1 = -0.25
CG34194 [DRSC05666] → z-score, replicate 1 = -3.24
P5cr-2 (Pyrroline-5-carboxylate reductase-like 2) [DRSC15889] → z-score, replicate 1 = 0.39
QIL1 [DRSC10888] → z-score, replicate 1 = -2.09
Zpr1 [DRSC18432] → z-score, replicate 1 = 0.28
CG15144 [DRSC02445] → z-score, replicate 1 = 0.49
Vps33B (Vacuolar protein sorting 33B) [DRSC15722] → z-score, replicate 1 = 0.66
CG34166 [DRSC02482] → z-score, replicate 1 = 0.64
garz (gartenzwerg) [DRSC07193] → z-score, replicate 1 = -3.68
CG2162 [DRSC08557] → z-score, replicate 1 = 0.78
fl(2)d (female lethal d) [DRSC07620] → z-score, replicate 1 = 0.24
CG12984 [DRSC11693] → z-score, replicate 1 = 0.27
side-VIII (sidestep VIII) [DRSC05880] → z-score, replicate 1 = 0.43
side-VIII (sidestep VIII) [DRSC05883] → z-score, replicate 1 = -1.17
side-VIII (sidestep VIII) [DRSC06157] → z-score, replicate 1 = 0.37
RpS16 (Ribosomal protein S16) [DRSC04442] → z-score, replicate 1 = -4.13
CG15528 [DRSC15065] → z-score, replicate 1 = -0.27
CG43394 [DRSC01013] → z-score, replicate 1 = -0.47
CG43394 [DRSC21835] → z-score, replicate 1 = 1.13
nAChRalpha3 (nicotinic Acetylcholine Receptor alpha3) [DRSC18800] → z-score, replicate 1 = 0.43
Sf3a1 (Splicing factor 3a subunit 1) [DRSC15166] → z-score, replicate 1 = -5.01
Gadd45 (Growth arrest and DNA damage-inducible 45) [DRSC06033] → z-score, replicate 1 = 0.14
CG32102 [DRSC22015] → z-score, replicate 1 = 0.09
CG10597 [DRSC19357] → z-score, replicate 1 = 0.52
CG17190 [DRSC15184] → z-score, replicate 1 = 0.46
CG8176 [DRSC16394] → z-score, replicate 1 = 0.35
Mzt1 (Mitotic spindle organizing protein 1) [DRSC07979] → z-score, replicate 1 = -0.44
Pp2B-14D (Protein phosphatase 2B at 14D) [DRSC20270] → z-score, replicate 1 = -0.94
Surf4 (Surfeit 4) [DRSC16875] → z-score, replicate 1 = -0.11
beat-IV (beaten path IV) [DRSC14195] → z-score, replicate 1 = 0.14
beat-IV (beaten path IV) [DRSC14673] → z-score, replicate 1 = 0.27
CG6834 [DRSC16125] → z-score, replicate 1 = 0.14
5-HT1B (5-hydroxytryptamine (serotonin) receptor 1B) [DRSC05031] → z-score, replicate 1 = 0.23
5-HT1B (5-hydroxytryptamine (serotonin) receptor 1B) [DRSC05769] → z-score, replicate 1 = -4.72

In a second layout: 6 of the entries above.
Gene	dsRNA	z-score, replicate 1
CG10597	DRSC19357	0.52
CG17190	DRSC15184	0.46
CG8176	DRSC16394	0.35
Mzt1 (Mitotic spindle organizing protein 1)	DRSC07979	-0.44
Pp2B-14D (Protein phosphatase 2B at 14D)	DRSC20270	-0.94
Surf4 (Surfeit 4)	DRSC16875	-0.11
